Reference: paper PMC5574048
Results are given in words; binding and its absence hold for the method and conditions named. In cells and extracts the contact can be indirect. Some binding calls cover weakened binding; strength is not graded here.

Protein sequences, listed by entry. Tags and fused reporters are not part of them. Residues count along the entry.
UniProt O95905: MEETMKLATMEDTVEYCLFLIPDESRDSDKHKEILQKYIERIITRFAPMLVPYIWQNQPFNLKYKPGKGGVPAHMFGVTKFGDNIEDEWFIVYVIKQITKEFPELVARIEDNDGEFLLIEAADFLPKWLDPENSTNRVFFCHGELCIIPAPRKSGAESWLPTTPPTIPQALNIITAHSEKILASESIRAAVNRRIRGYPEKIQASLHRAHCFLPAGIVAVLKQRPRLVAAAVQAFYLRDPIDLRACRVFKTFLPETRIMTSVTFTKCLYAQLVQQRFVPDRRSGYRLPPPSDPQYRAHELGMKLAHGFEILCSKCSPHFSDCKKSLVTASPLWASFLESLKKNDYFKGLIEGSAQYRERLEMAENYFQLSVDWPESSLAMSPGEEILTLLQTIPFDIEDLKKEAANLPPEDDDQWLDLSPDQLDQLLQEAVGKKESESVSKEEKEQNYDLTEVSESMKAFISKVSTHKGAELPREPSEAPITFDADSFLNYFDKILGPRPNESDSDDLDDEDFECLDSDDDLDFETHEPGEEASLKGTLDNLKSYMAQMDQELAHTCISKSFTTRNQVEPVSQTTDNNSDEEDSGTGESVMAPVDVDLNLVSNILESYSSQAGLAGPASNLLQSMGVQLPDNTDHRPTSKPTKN
UniProt P11021, residues 19-654: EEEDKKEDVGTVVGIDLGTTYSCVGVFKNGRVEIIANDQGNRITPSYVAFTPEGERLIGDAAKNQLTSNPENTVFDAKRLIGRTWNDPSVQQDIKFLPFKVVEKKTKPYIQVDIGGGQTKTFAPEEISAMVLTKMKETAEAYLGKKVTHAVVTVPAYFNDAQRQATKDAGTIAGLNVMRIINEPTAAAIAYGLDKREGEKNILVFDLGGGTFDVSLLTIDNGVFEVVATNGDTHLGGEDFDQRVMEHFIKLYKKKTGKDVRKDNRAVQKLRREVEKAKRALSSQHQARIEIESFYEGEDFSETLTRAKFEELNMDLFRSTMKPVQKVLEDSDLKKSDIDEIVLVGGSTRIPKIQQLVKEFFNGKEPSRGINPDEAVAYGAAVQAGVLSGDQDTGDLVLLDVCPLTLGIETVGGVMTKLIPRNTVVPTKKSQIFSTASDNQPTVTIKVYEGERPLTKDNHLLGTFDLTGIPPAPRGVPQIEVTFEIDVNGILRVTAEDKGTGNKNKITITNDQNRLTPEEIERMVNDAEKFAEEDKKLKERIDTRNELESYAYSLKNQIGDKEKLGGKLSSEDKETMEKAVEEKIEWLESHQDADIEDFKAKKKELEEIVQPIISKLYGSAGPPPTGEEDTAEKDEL

What was measured:
[1] = molecular target: Ecdysoneless (ECD) protein (human (endogenous in MCF-10A)) (UniProt O95905); experiment: co-IP; IP with anti-ECD antibody from lysates of MCF-10A cells treated with thapsigargin or left untreated (CHAPS buffer: 0.3% CHAPS, 20 mM Tris-HCl pH 7.4, 120 mM NaCl, 10% glycerol, 5 mM EDTA); Western blotting
[2] = molecular target: Ecdysoneless (ECD) protein (human (endogenous in MCF-10A)) (UniProt O95905); experiment: proximity ligation; MCF-10A cells fixed with 3% PFA, stained with mouse anti-ECD and rabbit antibodies to the partner, DuoLink plus and minus probes; red dots indicate interactions

Which results are given for GRP78 (from UniProt P11021 19-654)?
binding [1]: binds; binding [2]: binds
